Source: PubChem BioAssay AID743327 (National Center for Advancing Translational Sciences (NCATS), 2014)
Inconclusive results, whose numbers are uncertain, are shown with a selection of clear calls. Where the call is inconclusive, the potency comes from a doubtful curve fit. Activity calls are given as the source filed them. Calls follow the shape of the full dose curve.

experiment: qHTS profiling of Chloroquine Analogs as inhibitors of Plasmodium falciparum (HB3) proliferation; details: P. falciparum HB3 proliferation
Excerpt: Plasmodium falciparum is a virulent malarial parasite that kills 1-2 million people worldwide each year. Transmitted by mosquitoes, the sporozoite form of the parasite enters the blood stream to infect hepatocytes, where they become merozoites that infect red blood cells (erythrocytes). Within erythrocytes, merozoites begin a […] cycle of growth and division, after which the parasite is released to infect new red blood cells. Gametocytes, which form within erythrocytes as well, circulate in the bloodstream and are ingested by the mosquito, thereby completing the life cycle. To profile malarial isolates for differential chemical responses and to identify inhibitors of malarial growth, an assay that measures P. falciparum growth and replication within erythrocytes was employed. This assay uses a DNA binding fluorescent dye (SYBR Green) to detect parasite DNA following cell lysis. Because mature erythrocytes lack DNA, only Plasmodium-derived DNA is detected.
The SYBR Green viability assay was adapted from a method described previously (Plouffe et al., 2008). For screening 3 ul culture medium was dispensed into 1536 well black clear bottom plates (Aurora Biotechnologies) using a Multidrop Combi (Thermo Fisher Scientific Inc.), 23 nL compounds in DMSO were added by a pin tool (Kalypsys), and 5 ul of erythrocytes infected with P. falciparum (0.3% parasitemia, 2.5% hematocrit final concentration) were added. The plates were incubated at 37 C in a humidified incubator in 5% CO2 for 72 h, and 2 ul lysis buffer (20 mM Tris HCl, 10 mM EDTA, 0.16% saponin, 1.6% triton X, 10X SYBR Green I supplied as 10,000X […] by Invitrogen) was added to each well. […] The following morning, fluorescence intensity at 485(14) nm excitation and 535(25) nm emission wavelengths was measured on an EnVision (Perkin Elmer) plate reader. Plate reads were normalized relative to the control inhibitor (0.29 uM artemisinin) and vehicle (DMSO) wells present on each plate and then corrected by an algorithm using vehicle-only control plates at the beginning and end of the compound plate stack.

Compound | Potency
O=CN(O)CCCP(=O)(O)O | active: 473 nM
COc1ccc2nc3cc(Cl)ccc3c(Nc3cc(CN4CCCC4)c(O)c(CN4CCCC4)c3)c2n1 | inconclusive: 23.7 nM [inhibitor, full curve, poor fit]
C[C@H]1[C@@H](OC(=O)CCC(=O)O)O[C@@H]2OC3(C)CC[C@H]4[C@H](C)CC[C@@H]1[C@@]24OO3 | active: 3 nM
